From PubChem BioAssay AID1688 (National Center for Advancing Translational Sciences (NCATS), 2009)
About 2,400 (1.1%) of roughly 220,000 compounds were called active. The inconclusive results got no clear call from the source; some entries with a clear call stand among them for comparison. The call rests on the fitted dose curve; in most records, active means well fitted inhibition curve with a large enough effect; inconclusive means small, poorly fitted or top-dose-only effect, or effect the other way; inactive means no such curve, though single readings can be large or run the other way. Where the call is inconclusive, the potency comes from a doubtful curve fit.

Test: qHTS Multiplex Assay to Identify Dual Action Probes in a Cell Model of Huntington: Aggregate Formation (GFP); further: nearly all actives have a fitted effect of over 60% in size
Conditions: PC12 HttQ103-GFP aggregates, Acumen cytometry, 40 h; activity change, negative = inhibition: at 46.1 µM (top of the series) unless noted
Summary of the method: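 Huntingtin Q103 exon 1–GFP aggregates in induced PC12 cells (100 nM tebufenozide) were quantified by cytometry from lysates, with compounds dosed in titration.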
On the % scale 0 is the no-effect control and ±100 the full control effect; potency means the concentration at half of the fitted maximal effect.

SMILES	Potency	activity change, negative = inhibition
COc1ccc(CN(C(=O)CSc2nnc(-c3c[nH]c4ccccc34)o2)c2ccc(F)cc2)cc1OC	inconclusive: 35.5 µM [inhibitor, single point]	–
Cc1cccc2sc(NC(=O)CN3C(=O)c4ccccc4C3=O)nc12	inconclusive: 35.5 µM [inhibitor, partial curve]	–
O=c1[nH][nH]c(C(F)(F)F)c1C=NCc1cccc(Cl)c1	inconclusive: 0.562 µM [inhibitor, full curve, poor fit]	–
CCOC(=O)N1CCC(N2C(=O)c3ccccc3C2Nc2ccc3c(C)cc(=O)oc3c2)CC1 (stereo unspecified)	inconclusive: 0.794 µM [inhibitor, full curve, poor fit]	–
CCN1c2ccccc2N(C)C1(C)c1ccccc1 (stereo unspecified)	active: 12.6 µM	–
COc1ccc(C(=O)CCN2CCCCCC2)cc1	inconclusive: 25.1 µM [inhibitor, single point]	–
Cc1c(C(=O)NNc2cc(=O)n(C)c(=O)n2C)cccc1[N+](=O)[O-]	–	inactive: -7.73% [at 9.22 µM]
CCc1nc(C)cn1S(=O)(=O)c1cc([N+](=O)[O-])ccc1Cl	inconclusive: 7.08 µM [activator, full curve]	–
COc1ccc(OC)c(NC(=S)NN2CCN(C)CC2)c1	inconclusive: 14.1 µM [inhibitor, partial curve]	–
CC1(C)NC(=O)N(CCCCSc2ccc(Cl)cc2)C1=O	inconclusive: 15.8 µM [inhibitor, single point]	–
Cc1ccc(NS(=O)(=O)c2cc(C(=O)NCCSc3ccc(C)cc3)ccc2C)cc1	inconclusive: 35.5 µM [inhibitor, single point]	–
COc1ccc2ccccc2c1C1CC(=O)N2CN(C3CCCCC3)CSC2=C1C#N (stereo unspecified)	inconclusive: 20 µM [activator, single point]	–
Cc1ccccc1C(=O)c1cccn1CC(=O)NCCN1CCN(c2cccc(C)c2C)CC1	inconclusive: 11.2 µM [inhibitor, single point]	–
CC(C)(C)NC(=O)Nc1ccc(F)c(Cl)c1	active: 12.6 µM	–
CCOc1ccc(-c2ccc(/C=C3/C(=N)N4C=CSC4=NC3=O)o2)c([N+](=O)[O-])c1	inconclusive: 12.6 µM [inhibitor, partial curve]	–
CN=C(Nc1ccc(Cl)cc1)c1cccc(C(F)(F)F)c1	inconclusive: 25.1 µM [inhibitor, single point]	–
COc1ccc(-c2n[nH]c(C)c2-c2ccc(Cl)cc2)c(O)c1OC	inconclusive: 2.82 µM [inhibitor, partial curve]	–
COC(=O)c1ccc(NC(=O)CN2CCN(c3ccccc3)CC2)cc1	inconclusive: 35.5 µM [inhibitor, single point]	–
COc1ccc(S(=O)(=O)N2CCCC(C(=O)NCc3ccncc3)C2)cc1 (stereo unspecified)	inconclusive: 35.5 µM [inhibitor, single point]	–
c1cncc(-c2nnc(-c3cccnc3)nn2)c1	inconclusive: 35.5 µM [inhibitor, single point]	–
O=C(C1CCCO1)N1CCN(c2ccccn2)CC1 (stereo unspecified)	inconclusive: 2.24 µM [activator, partial curve]	–
Cc1cccc(N2CCN(C(=O)C3CCN(S(=O)(=O)c4cccc5nsnc45)CC3)CC2C)c1 (stereo unspecified)	inconclusive: 25.1 µM [inhibitor, single point]	–

By substructure: the entries above with a Cl atom.
SMILES	Potency	activity change, negative = inhibition
O=c1[nH][nH]c(C(F)(F)F)c1C=NCc1cccc(Cl)c1	inconclusive: 0.562 µM [inhibitor, full curve, poor fit]	–
CCc1nc(C)cn1S(=O)(=O)c1cc([N+](=O)[O-])ccc1Cl	inconclusive: 7.08 µM [activator, full curve]	–
CC1(C)NC(=O)N(CCCCSc2ccc(Cl)cc2)C1=O	inconclusive: 15.8 µM [inhibitor, single point]	–
CC(C)(C)NC(=O)Nc1ccc(F)c(Cl)c1	active: 12.6 µM	–
CN=C(Nc1ccc(Cl)cc1)c1cccc(C(F)(F)F)c1	inconclusive: 25.1 µM [inhibitor, single point]	–
COc1ccc(-c2n[nH]c(C)c2-c2ccc(Cl)cc2)c(O)c1OC	inconclusive: 2.82 µM [inhibitor, partial curve]	–

Next structures.

SMILES	Potency	activity change, negative = inhibition
Cc1ccc(S(=O)(=O)Nc2ccc(NC(=O)c3c(F)c(F)c(F)c(F)c3F)cc2)cc1	inconclusive: 12.6 µM [inhibitor, partial curve]	–
COc1ccc(C(CC(=O)N2CCOCC2)c2c(OC)cc(OC)c3ccc(=O)oc23)cc1 (stereo unspecified)	inconclusive: 0.501 µM [inhibitor, partial curve]	–
Cc1ccc(-n2nnnc2-c2cnn(-c3cccc(F)c3)c2C(F)(F)F)cc1	inconclusive: 10 µM [inhibitor, partial curve]	–
COc1cccc(N(C)C(=S)Oc2ccc3c(c2)CCCC3)n1	–	inactive: -12.9%
CC(C)C(=O)NNC(=O)c1ccccn1	inconclusive: 20 µM [inhibitor, partial curve]	–
COC(=O)C1=C(C)NC(=O)C1(NS(=O)(=O)c1ccc(NC(C)=O)cc1)C(F)(F)F (stereo unspecified)	inconclusive: 3.98 µM [inhibitor, single point]	–
CCn1c(Oc2ccc(F)cc2)nc2c1c(=O)n(C)c(=O)n2C	active: 11.2 µM	–
CCCCCCC(=O)N1CCC(c2nc3c(nnn3Cc3ccccc3Cl)c(=O)[nH]2)CC1	inconclusive: 25.1 µM [inhibitor, single point]	–
Fc1cccc(CCN2C(=S)NC[C@@H]2CC2CCCCC2)c1	inconclusive: 6.31 µM [activator, single point]	–
CSc1nc2ncc(C(=O)O)c(N)n2n1	–	inactive: -19.1%
NS(=O)(=O)c1cccnc1Nc1cccc(Cl)c1	inconclusive: 2.24 µM [activator, partial curve, poor fit]	–
Cc1ccc2c(c1)cc(C)c1nnc(SCC(=O)NCc3ccco3)n12	inconclusive: 5.62 µM [activator, single point]	–
O=C(Nc1cccc(S(=O)(=O)N2CCOCC2)c1)C(c1ccccc1)N1CCCCC1 (stereo unspecified)	–	inactive: -12.8%
COc1ccccc1-c1c(NC(=O)c2ccco2)n(C)c2ccccc2c1=O	–	inactive: 12.6% [at 9.22 µM]
CCn1cc(C(=O)O)c(=O)c2cc(F)c(N3CCN(S(=O)(=O)c4ccc(NC(=O)OC)cc4)CC3)cc21	active: 31.6 µM	–
CNc1oc(Cc2cccc3ccccc23)nc1C#N	inconclusive: 10 µM [activator, partial curve]	–
Cc1nc2c(C(=O)NCc3ccc4c(c3)OCO4)c[nH]n2c(=O)c1Cc1ccccc1F	inconclusive: 35.5 µM [inhibitor, single point]	–
CSc1ccc(CNc2nc3ccccc3n3cnnc23)cc1	inconclusive: 0.112 µM [inhibitor, partial curve, poor fit]	–
CC(=O)Nc1ccc(S(=O)(=O)NCCSc2ccccn2)cc1	inconclusive: 0.562 µM [inhibitor, partial curve, poor fit]	–
COc1ccc(Nc2ncnc3ccc([N+](=O)[O-])cc23)c(OC)c1	inconclusive: 8.91 µM [inhibitor, partial curve]	–
Nc1nonc1C(=O)NCCNCc1cc(Br)ccc1OCc1ccccc1F	inconclusive: 22.4 µM [inhibitor, single point]	–
CCOC(=O)N1CCN(C(=O)c2ccc3c(=O)n(Cc4ccc(Cl)cc4)c(=S)[nH]c3c2)CC1	inconclusive: 25.1 µM [inhibitor, single point]	–

SMILES	Potency	activity change, negative = inhibition
N#CCCN(Cc1cccnc1)C(=S)NC(=O)c1ccco1	–	inactive: 2.88%
CC(=O)NC1(C(F)(F)F)NC(=O)N(c2ccc(F)cc2)C1=O (stereo unspecified)	inconclusive: 1.26 µM [activator, full curve, poor fit]	–
CCCCN(C)S(=O)(=O)c1c(C)[nH]c(=O)[nH]c1=O	–	inactive: -18.8%
CCn1c(SCC(=O)O)nnc1-c1ccccc1	–	inactive: -0.25%
COc1ccc([C@@H]2Sc3ccccc3N(CCN(C)C)C(=O)[C@@H]2OC(C)=O)cc1	inconclusive: 35.5 µM [inhibitor, single point]	–
COc1cc(/C=C(\C#N)c2nc3ccccc3[nH]2)c([N+](=O)[O-])cc1OCc1ccccc1	–	inactive: -12.5%
CCCCCCCCS(=O)c1sc2nc(C)cc(C)c2c1N (stereo unspecified)	inconclusive: 11.2 µM [inhibitor, partial curve]	–
COc1ccc(Nc2nc(-c3c(C)nc4ncccn34)cs2)cc1	inconclusive: 0.141 µM [inhibitor, full curve, poor fit]	–
Cc1ccccc1S(=O)(=O)NNC(=O)C(=O)NNc1ccccn1	inconclusive: 35.5 µM [inhibitor, single point]	–
Cn1c(=O)n(C)c2cc([N+](=O)[O-])c(N3CCN(C(=O)c4ccc(F)cc4)CC3)cc21	inconclusive: 31.6 µM [inhibitor, single point]	–
O=C(Nc1cc(S(=O)(=O)Nc2ccc(Cl)cc2)ccc1N1CCCCC1)c1ccc(F)cc1Cl	inconclusive: 17.8 µM [inhibitor, single point]	–
CC(=O)/C(=N/Nc1ccccc1)N1CCOCC1	inconclusive: 5.62 µM [activator, single point]	–
Cc1ccc(C(=O)NC=C(Cl)Cl)cc1	–	inactive: -13.3%
CNS(=O)(=O)c1cc(C(=O)OCC(=O)NC2CCCc3ccccc32)ccc1Cl (stereo unspecified)	inconclusive: 3.55 µM [inhibitor, single point]	–
Cc1ccc(NC(=O)CCl)c(C)c1	inconclusive: 10 µM [inhibitor, single point]	–
CC1CCCC(C)N1/N=C/c1cc(Br)c(O)c(Br)c1 (stereo unspecified)	–	inactive: 7.65%
COCCNC(=O)c1ccccc1NC(=O)c1ccc(Cl)c(S(=O)(=O)Nc2ccc(C)cc2C)c1	inconclusive: 0.891 µM [activator, single point]	–
CCC1(CC)Cc2ccccc2C(=C(C#N)C#N)N1	inconclusive: 17.8 µM [activator, partial curve, poor fit]	–
O=C(O)CCS(=O)(=O)c1cccc2cccnc12	inconclusive: 0.501 µM [inhibitor, full curve, poor fit]	–
CC1CCC(NC(=O)Cn2ncc3ccccc32)CC1 (stereo unspecified)	–	inactive: -17.7%
O=C(c1ccc2c(=O)n3c(nc2c1)CCCCC3)N1CCN(C(c2ccccc2)c2ccccc2)CC1	inconclusive: 28.2 µM [inhibitor, single point]	–
C=CCSc1nc2sc(-c3ccccc3)cc2c(=O)n1N	inconclusive: 10 µM [activator, partial curve]	–
